Test results from publication PMC13187025.
Results are given in words; binding and its absence hold for the method and conditions named. In cells and extracts the contact can be indirect. Some results given as binding are weak or reduced against the parent protein; the word gives no strength. For part of these data: Sequences can lack the tags named with a protein.

T1: DFN-IRS2 (endogenous IRS2 with mNeonGreen and FLAG tags at the N-terminus) (human (endogenous in SUM-159)) (UniProt Q9Y4H2)
T1 sequence: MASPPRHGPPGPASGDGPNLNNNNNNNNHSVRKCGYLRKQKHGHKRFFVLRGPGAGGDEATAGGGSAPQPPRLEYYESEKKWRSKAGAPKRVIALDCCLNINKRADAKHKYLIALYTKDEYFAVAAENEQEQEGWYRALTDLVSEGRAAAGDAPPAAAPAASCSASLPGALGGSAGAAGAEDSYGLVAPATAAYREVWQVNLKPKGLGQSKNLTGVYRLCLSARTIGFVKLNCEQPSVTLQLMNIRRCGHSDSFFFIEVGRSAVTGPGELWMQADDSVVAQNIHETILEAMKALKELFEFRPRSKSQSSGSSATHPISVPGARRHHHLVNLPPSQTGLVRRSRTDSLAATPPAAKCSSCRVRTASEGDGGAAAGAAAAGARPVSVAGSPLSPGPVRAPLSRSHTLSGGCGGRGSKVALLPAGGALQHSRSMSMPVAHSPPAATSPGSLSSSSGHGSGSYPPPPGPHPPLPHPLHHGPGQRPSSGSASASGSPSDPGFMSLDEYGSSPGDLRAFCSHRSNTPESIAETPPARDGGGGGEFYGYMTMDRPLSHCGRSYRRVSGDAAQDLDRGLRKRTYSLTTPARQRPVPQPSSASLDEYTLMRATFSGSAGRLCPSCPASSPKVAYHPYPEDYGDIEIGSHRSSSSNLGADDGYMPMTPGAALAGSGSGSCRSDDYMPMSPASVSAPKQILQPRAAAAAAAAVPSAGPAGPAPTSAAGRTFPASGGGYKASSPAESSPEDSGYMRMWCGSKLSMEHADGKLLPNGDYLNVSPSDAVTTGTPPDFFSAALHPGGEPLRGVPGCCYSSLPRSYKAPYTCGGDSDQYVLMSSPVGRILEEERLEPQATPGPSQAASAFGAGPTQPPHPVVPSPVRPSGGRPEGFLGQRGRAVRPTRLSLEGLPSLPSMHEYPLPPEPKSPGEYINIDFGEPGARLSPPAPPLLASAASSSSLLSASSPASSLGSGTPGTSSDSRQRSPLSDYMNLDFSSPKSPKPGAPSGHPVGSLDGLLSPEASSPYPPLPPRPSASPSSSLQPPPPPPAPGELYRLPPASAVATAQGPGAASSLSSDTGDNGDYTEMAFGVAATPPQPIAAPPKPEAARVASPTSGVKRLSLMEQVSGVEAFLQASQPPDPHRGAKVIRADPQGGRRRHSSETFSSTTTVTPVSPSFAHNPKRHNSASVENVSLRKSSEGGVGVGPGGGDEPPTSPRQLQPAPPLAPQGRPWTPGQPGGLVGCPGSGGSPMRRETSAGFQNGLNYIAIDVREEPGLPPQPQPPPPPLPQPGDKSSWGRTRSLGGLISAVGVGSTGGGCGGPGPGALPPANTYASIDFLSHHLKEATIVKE

T2: IRS2-S2A (S731A and S736A) with a C-terminal FLAG tag (human) (UniProt Q9Y4H2)
T2 sequence: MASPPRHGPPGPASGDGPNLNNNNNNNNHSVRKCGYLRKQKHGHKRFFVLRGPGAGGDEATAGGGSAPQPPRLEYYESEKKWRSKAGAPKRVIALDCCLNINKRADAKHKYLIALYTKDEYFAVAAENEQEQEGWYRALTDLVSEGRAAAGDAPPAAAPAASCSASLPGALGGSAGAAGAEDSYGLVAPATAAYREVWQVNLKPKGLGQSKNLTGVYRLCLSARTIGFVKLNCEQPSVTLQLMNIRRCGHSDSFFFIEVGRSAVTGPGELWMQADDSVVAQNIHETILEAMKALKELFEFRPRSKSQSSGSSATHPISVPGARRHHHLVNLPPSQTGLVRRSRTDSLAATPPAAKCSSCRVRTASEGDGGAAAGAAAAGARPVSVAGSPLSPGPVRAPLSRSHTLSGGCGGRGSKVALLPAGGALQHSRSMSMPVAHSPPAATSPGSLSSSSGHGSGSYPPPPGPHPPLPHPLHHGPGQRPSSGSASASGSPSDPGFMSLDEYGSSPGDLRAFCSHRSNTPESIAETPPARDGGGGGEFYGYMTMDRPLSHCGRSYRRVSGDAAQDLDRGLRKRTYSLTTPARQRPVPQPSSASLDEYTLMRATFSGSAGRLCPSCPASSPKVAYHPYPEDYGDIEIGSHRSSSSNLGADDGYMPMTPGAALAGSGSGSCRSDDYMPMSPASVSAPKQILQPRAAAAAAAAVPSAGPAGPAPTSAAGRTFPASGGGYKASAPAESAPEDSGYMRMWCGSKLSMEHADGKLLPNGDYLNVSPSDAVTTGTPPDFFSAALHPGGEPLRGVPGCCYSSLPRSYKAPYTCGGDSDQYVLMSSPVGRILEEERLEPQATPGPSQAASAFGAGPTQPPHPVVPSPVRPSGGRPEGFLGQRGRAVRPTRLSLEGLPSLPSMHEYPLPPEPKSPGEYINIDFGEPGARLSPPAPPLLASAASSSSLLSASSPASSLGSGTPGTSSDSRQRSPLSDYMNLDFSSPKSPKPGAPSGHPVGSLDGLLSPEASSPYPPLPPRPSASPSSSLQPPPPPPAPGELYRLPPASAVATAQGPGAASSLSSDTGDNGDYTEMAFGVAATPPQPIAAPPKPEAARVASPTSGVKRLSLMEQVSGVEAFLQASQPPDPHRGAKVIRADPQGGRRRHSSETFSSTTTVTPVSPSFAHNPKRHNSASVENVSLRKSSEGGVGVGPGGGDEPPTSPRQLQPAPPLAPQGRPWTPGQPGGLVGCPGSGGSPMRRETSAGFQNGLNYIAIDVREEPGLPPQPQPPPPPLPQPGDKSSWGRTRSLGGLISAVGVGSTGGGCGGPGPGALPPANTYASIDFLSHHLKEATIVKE

T3: IRS2-WT with a C-terminal FLAG tag (human) (UniProt Q9Y4H2)
T3 sequence: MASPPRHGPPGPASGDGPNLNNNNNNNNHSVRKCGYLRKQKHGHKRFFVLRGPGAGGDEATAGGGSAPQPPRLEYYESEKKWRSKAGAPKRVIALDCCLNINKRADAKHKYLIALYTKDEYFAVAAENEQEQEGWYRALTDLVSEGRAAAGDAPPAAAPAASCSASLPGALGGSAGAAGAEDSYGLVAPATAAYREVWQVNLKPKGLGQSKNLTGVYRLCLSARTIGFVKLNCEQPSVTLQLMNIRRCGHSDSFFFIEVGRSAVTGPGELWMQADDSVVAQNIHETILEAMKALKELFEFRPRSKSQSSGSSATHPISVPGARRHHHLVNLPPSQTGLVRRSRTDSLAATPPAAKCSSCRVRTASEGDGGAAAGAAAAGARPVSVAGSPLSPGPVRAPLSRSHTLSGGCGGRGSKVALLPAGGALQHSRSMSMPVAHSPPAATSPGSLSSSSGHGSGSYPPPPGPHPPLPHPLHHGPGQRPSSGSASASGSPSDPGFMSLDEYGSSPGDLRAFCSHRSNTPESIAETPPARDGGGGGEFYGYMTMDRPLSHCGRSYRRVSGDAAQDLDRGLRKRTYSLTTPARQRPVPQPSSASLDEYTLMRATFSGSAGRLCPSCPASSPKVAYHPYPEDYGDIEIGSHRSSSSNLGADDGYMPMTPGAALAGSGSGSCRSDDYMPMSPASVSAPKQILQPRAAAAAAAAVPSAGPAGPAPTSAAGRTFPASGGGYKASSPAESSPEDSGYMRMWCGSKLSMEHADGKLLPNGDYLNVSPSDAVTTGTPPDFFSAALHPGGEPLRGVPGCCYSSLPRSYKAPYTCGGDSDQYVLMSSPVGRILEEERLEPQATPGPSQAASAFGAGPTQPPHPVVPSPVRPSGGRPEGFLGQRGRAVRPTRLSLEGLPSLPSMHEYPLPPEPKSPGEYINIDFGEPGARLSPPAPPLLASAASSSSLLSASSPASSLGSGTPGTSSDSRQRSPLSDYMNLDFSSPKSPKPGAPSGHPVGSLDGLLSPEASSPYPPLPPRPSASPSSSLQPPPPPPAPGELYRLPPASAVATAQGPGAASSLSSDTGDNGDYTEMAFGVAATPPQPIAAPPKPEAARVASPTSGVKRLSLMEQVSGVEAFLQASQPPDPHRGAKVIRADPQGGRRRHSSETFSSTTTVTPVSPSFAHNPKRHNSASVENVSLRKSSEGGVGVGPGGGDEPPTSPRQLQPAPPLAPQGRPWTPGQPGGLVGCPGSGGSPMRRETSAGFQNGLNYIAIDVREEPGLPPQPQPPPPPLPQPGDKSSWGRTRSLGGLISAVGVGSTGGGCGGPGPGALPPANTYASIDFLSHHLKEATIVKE


Key:
[1] = biological target: T1, DFN-IRS2 (endogenous IRS2 with mNeonGreen and FLAG tags at the N-terminus) (human (endogenous in SUM-159)); assay: proximity ligation; Duolink In Situ Red kit with mouse anti-FLAG and rabbit anti-PLK1 on fixed, permeabilized SUM-159 cells; nocodazole 50 ng/ml for 20 h, released 30 min
[2] = biological target: T2, IRS2-S2A (S731A and S736A) with a C-terminal FLAG tag (human); assay: as above
[3] = biological target: T3, IRS2-WT with a C-terminal FLAG tag (human); assay: as above
[4] = biological target: T2, IRS2-S2A (S731A and S736A) with a C-terminal FLAG tag (human); assay: co-IP; IRS2 constructs immunoprecipitated (FLAG-specific antibodies in Fig. 5C) from extracts of cells synchronized by thymidine/release (T/R; G2/M) or thymidine/release/nocodazole and shake-off (T/R/N; M); blotted for PLK1
[5] = biological target: T3, IRS2-WT with a C-terminal FLAG tag (human); assay: as above
[6] = biological target: Polo like kinase 1 (PLK1), endogenous (human (endogenous in SUM-159 and MDA-MB-231)) (UniProt P53350); assay: co-IP; endogenous proteins; extracts of mitotic SUM-159 and MDA-MB-231 cells (nocodazole 90 ng/ml, 16 h) immunoprecipitated with PLK1-specific antibodies; also SUM-159 cells synchronized by thymidine/release/nocodazole, and with the PLK1 inhibitor BI6727

Molecule | binding [1] | binding [2] | binding [3] | binding [4] | binding [5] | binding [6]
Polo like kinase 1 (PLK1), endogenous (from UniProt P53350 1-603) (enzyme) | binds | binds weakly | binds | binds weakly | binds | 
Insulin receptor substrate 2 (IRS2), endogenous (protein, UniProt Q9Y4H2 1-1338) MASPPRHGPPGPASGDGPNLNNNNNNNNHSVRKCGYLRKQKHGHKRFFVLRGPGAGGDEATAGGGSAPQPPRLEYYESEKKWRSKAGAPKRVIALDCCLNINKRADAKHKYLIALYTKDEYFAVAAENEQEQEGWYRALTDLVSEGRAAAGDAPPAAAPAASCSASLPGALGGSAGAAGAEDSYGLVAPATAAYREVWQVNLKPKGLGQSKNLTGVYRLCLSARTIGFVKLNCEQPSVTLQLMNIRRCGHSDSFFFIEVGRSAVTGPGELWMQADDSVVAQNIHETILEAMKALKELFEFRPRSKSQSSGSSATHPISVPGARRHHHLVNLPPSQTGLVRRSRTDSLAATPPAAKCSSCRVRTASEGDGGAAAGAAAAGARPVSVAGSPLSPGPVRAPLSRSHTLSGGCGGRGSKVALLPAGGALQHSRSMSMPVAHSPPAATSPGSLSSSSGHGSGSYPPPPGPHPPLPHPLHHGPGQRPSSGSASASGSPSDPGFMSLDEYGSSPGDLRAFCSHRSNTPESIAETPPARDGGGGGEFYGYMTMDRPLSHCGRSYRRVSGDAAQDLDRGLRKRTYSLTTPARQRPVPQPSSASLDEYTLMRATFSGSAGRLCPSCPASSPKVAYHPYPEDYGDIEIGSHRSSSSNLGADDGYMPMTPGAALAGSGSGSCRSDDYMPMSPASVSAPKQILQPRAAAAAAAAVPSAGPAGPAPTSAAGRTFPASGGGYKASSPAESSPEDSGYMRMWCGSKLSMEHADGKLLPNGDYLNVSPSDAVTTGTPPDFFSAALHPGGEPLRGVPGCCYSSLPRSYKAPYTCGGDSDQYVLMSSPVGRILEEERLEPQATPGPSQAASAFGAGPTQPPHPVVPSPVRPSGGRPEGFLGQRGRAVRPTRLSLEGLPSLPSMHEYPLPPEPKSPGEYINIDFGEPGARLSPPAPPLLASAASSSSLLSASSPASSLGSGTPGTSSDSRQRSPLSDYMNLDFSSPKSPKPGAPSGHPVGSLDGLLSPEASSPYPPLPPRPSASPSSSLQPPPPPPAPGELYRLPPASAVATAQGPGAASSLSSDTGDNGDYTEMAFGVAATPPQPIAAPPKPEAARVASPTSGVKRLSLMEQVSGVEAFLQASQPPDPHRGAKVIRADPQGGRRRHSSETFSSTTTVTPVSPSFAHNPKRHNSASVENVSLRKSSEGGVGVGPGGGDEPPTSPRQLQPAPPLAPQGRPWTPGQPGGLVGCPGSGGSPMRRETSAGFQNGLNYIAIDVREEPGLPPQPQPPPPPLPQPGDKSSWGRTRSLGGLISAVGVGSTGGGCGGPGPGALPPANTYASIDFLSHHLKEATIVKE |  |  |  |  |  | binds
